The other results are listed elsewhere or left out. These are further read-outs of the screen, such as a control signal, another cell line or another target. No call is given for them. The list favours compounds with an active or inconclusive main result. Potencies come from curve fits of mixed quality, noted in brackets.
Assay: qHTS Assay to Find Inhibitors of Chronic Active B-Cell Receptor Signaling
Settings: ABC-DLBCL IkBa-CBG/CBR reporter, luminescence ratio (green luciferase fused to IkBa over red control in TMD8 lymphoma cells), 4 h
Method in brief: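 Doxycycline induced both beetle luciferases in TMD8 lymphoma cells; IKK-driven degradation limits the IkappaBalpha-fused green signal, while red luminescence normalises for cell number and nonspecific effects. Compounds tested up to 46 uM, 4 hrs.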

[1] = measured here: CBR red luminescence, cell number
[2] = measured here: IkBa-CBG green luminescence

| Compound | AC50 [1] | AC50 [2] |
| --- | --- | --- |
| COc1cc(CNCc2ccccn2)ccc1OCc1c(Cl)cccc1Cl | 14.1 µM [falling, partial curve] | – |
| CCCCCCOc1ccc(OC(=O)c2cccnc2)cc1 | 17.8 µM [rising, single point] | – |
| O=C(N=C1c2ccccc2CN1c1ccccc1)c1cccc([N+](=O)[O-])c1 | 3.66 µM [rising, full curve, poor fit] | – |
| FC(F)(F)c1ccc(-c2csc(-c3ccno3)n2)cc1 | 17.8 µM [rising, partial curve, poor fit] | – |
| Cc1ccc(NC(=S)N2CCC(N(C)CC3CCCO3)CC2)c(C)c1 (centres undefined) | 6.51 µM [falling, single point] | – |
| COc1ccc2[nH]c(=O)c(CN(C(=O)c3cccnc3)c3ccccc3)cc2c1 | 29.1 µM [falling, single point] | – |
| COC(=O)c1nnn(CC(=O)Nc2cccc(Cl)c2C)c1C(=O)OC | 2.06 µM [falling, single point] | – |
| CCOC(=O)c1c(-c2ccccc2)[nH]c2ccc(O)cc12 | 29.1 µM [falling, single point] | – |
| O=C1NC(c2ccc(-c3ccccc3[N+](=O)[O-])o2)C(C(=O)c2ccc(F)cc2)C(O)(C(F)(F)F)N1 (centres undefined) | 16.4 µM [falling, partial curve] | – |
| O=C(CCl)Nc1ccc(S(=O)(=O)Nc2nccs2)cc1 | 35.5 µM [falling, partial curve, poor fit] | – |
| Brc1ccc(-c2nc(-c3ccccc3)no2)o1 | 2.91 µM [rising, single point] | – |
| Oc1ccc(Cl)cc1CNCc1ccc(Cl)nc1 | 29.1 µM [rising, single point] | – |
| CC(NS(=O)(=O)c1ccc(OCC(=O)Nc2cccc([N+](=O)[O-])c2)cc1)c1ccccc1 (centres undefined) | 8.2 µM [falling, partial curve, poor fit] | – |
| Cc1ccc(SCC(=O)Nc2cc(C)on2)cc1 | 6.51 µM [rising, single point] | – |
| Cc1cc(=O)c2cc(C(=O)c3ccccc3)ccc2[nH]1 | 35.5 µM [falling, single point] | – |
| O=C(Nc1cc(C(F)(F)F)ccc1Cl)C(Sc1nnc(-c2cccs2)o1)c1ccccc1 (centres undefined) | – | 23.1 µM [rising, partial curve, poor fit] |
| O=C(Nc1ccc(Nc2ccncc2)cc1)c1ccc([N+](=O)[O-])cc1 | 7.08 µM [falling, partial curve, poor fit] | – |
| c1csc(-c2nnc(COc3ccc4c(c3)OCO4)o2)c1 | 11.2 µM [falling, partial curve] | – |
| CC(C)=N/N=C(/c1ccc([N+](=O)[O-])cc1)C12CN3CN(CN(C3)C1)C2 | 2 µM [rising, partial curve] | – |
| COc1ccc2sc(C)[n+](C)c2c1 | 20 µM [falling, partial curve, poor fit] | – |
| CCN(CC)CCCN(C(=O)Cn1nnc(-c2ccc(OC)c(OC)c2)n1)C(C(=O)NC(C)(C)C)c1ccc(F)cc1 (centres undefined) | 35.5 µM [falling, single point] | – |
| CN(CC(=O)NCc1ccc(Cl)cc1)S(=O)(=O)c1cccc2cccnc12 | 0.411 µM [falling, full curve] | – |

Part of the list above, in CSV form.
Compound,AC50 [1],AC50 [2]
CC(NS(=O)(=O)c1ccc(OCC(=O)Nc2cccc([N+](=O)[O-])c2)cc1)c1ccccc1 (centres undefined),"8.2 µM [falling, partial curve, poor fit]",–
Cc1ccc(SCC(=O)Nc2cc(C)on2)cc1,"6.51 µM [rising, single point]",–

Following part

| Compound | AC50 [1] | AC50 [2] |
| --- | --- | --- |
| Cc1nnc(NC(=O)C2CCCN2S(=O)(=O)c2ccc(Cl)cc2)s1 (centres undefined) | 3.98 µM [rising, single point] | 5.62 µM [falling, single point] |
| C/C(=N/NC(=O)c1cc(-c2ccc(Br)s2)[nH]n1)c1ccco1 | 22.4 µM [rising, single point] | 35.5 µM [falling, single point] |
| COc1ccc2oc(C(F)(F)C(F)F)cc(=O)c2c1 | 35.5 µM [rising, single point] | – |
| CCn1c(CCNC(=O)c2cccs2)nnc1SCC(=O)Nc1nc(-c2ccccc2)cs1 | – | 18.4 µM [rising, single point] |
| Cc1nnc(NC(=O)c2nc(S(=O)(=O)Cc3ccccc3C)ncc2Cl)s1 | 1.41 µM [falling, full curve, poor fit] | – |
| COc1ccc(N=N/C(=C\O)C(=O)c2ccco2)cc1 | 3.16 µM [rising, full curve, poor fit] | 17.8 µM [falling, partial curve] |
| O=C(Nc1ccccc1C(=O)N/N=C/c1ccco1)c1ccc(Cl)cc1 | 2.59 µM [falling, full curve] | – |
| O=C1CC(Cc2ccc(Cl)cc2)C(=O)N1c1ccccn1 (centres undefined) | 29.1 µM [rising, single point] | – |
| COc1ccc(N2CCN(C(=O)C(CCSC)N=C3NS(=O)(=O)c4ccccc43)CC2)cc1 (centres undefined) | 4.61 µM [rising, single point] | – |
| CCCCCOCC1CC(C/C(C)=N/Nc2nc(-c3ccccc3)cs2)C(=O)O1 (centres undefined) | 2.51 µM [falling, full curve] | – |
| c1cncc(CNc2ncnc3ccc(-c4ccc5c(c4)OCO5)cc23)c1 | 20.6 µM [falling, single point] | – |
| COc1ccc2cc(CCC(C)=O)ccc2c1 | 0.501 µM [rising, full curve, poor fit] | – |
| CCCCN(CC)C(=O)c1ccc(Cl)c(Cl)c1 | 6.51 µM [rising, full curve, poor fit] | – |
| COc1ccc(-c2noc(C3CCCN(C(=O)CCc4ccccc4)C3)n2)cc1 (centres undefined) | 2.06 µM [falling, partial curve, poor fit] | – |
| Cc1ccc(CC(=O)Nc2nc3c(s2)CCCC3)cc1 | 0.411 µM [rising, full curve] | – |
| O=C(O)c1ccc(COc2ccc3ccccc3c2)o1 | 2.51 µM [falling, partial curve] | – |
| O=C(COC(=O)Cc1cccc(C(F)(F)F)c1)NCC1CCCO1 (centres undefined) | 29.1 µM [falling, single point] | – |
| COc1ccc(OC)c(NC(=O)CCN2CCN(c3ccccc3OC)CC2)c1 | 11.2 µM [rising, partial curve, poor fit] | – |
| CCOC(=O)c1ccc(NC(=O)NCCc2ccccc2OC)cc1 | 0.447 µM [falling, full curve] | – |
| Cn1c(=S)[nH]c2c(c1=O)C(C)(C)Cc1ccccc1-2 | 35.5 µM [falling, single point] | 10 µM [falling, partial curve] |
| CC(=O)N(CCC(Cc1ccccc1)c1ccc2c(c1)OCO2)Cc1ccc(Cl)cc1 (centres undefined) | 29.1 µM [falling, single point] | 20.6 µM [rising, partial curve, poor fit] |
| CCSC1=N/C(=C\c2ccc3c(c2)OCO3)C(=O)S1 | 4.61 µM [rising, full curve, poor fit] | – |

| Compound | AC50 [1] | AC50 [2] |
| --- | --- | --- |
| COc1ccc(-c2nnc(-c3cc4ccccc4oc3=O)o2)cc1 | 0.651 µM [rising, full curve, poor fit] | – |
| O=C(CC1SC(N2CCCC2)=NC1=O)Nc1ccc(C(=O)Nc2ncccc2O)cc1 (centres undefined) | 32.6 µM [rising, single point] | – |
| Cc1oc2cc3oc(=O)c(CCC(=O)NCCN4CCOCC4)c(C)c3cc2c1C | 35.5 µM [falling, single point] | – |
| Cc1ccc(N/C=C/C(=O)c2ccccc2)cc1Br | 3.55 µM [falling, partial curve] | – |
| O=C(/C=C/Nc1ccc(F)cc1F)c1cccs1 | 16.4 µM [falling, partial curve] | – |
| COc1ccc(C(=O)Nc2ccc3[nH]c(-c4cccc(OC)c4)cc(=O)c3c2)cc1 | – | 3.26 µM [falling, single point] |
| CC1(C)CC(=O)C2=C(C1)OC(N)=C(C#N)C2c1ccccc1 (centres undefined) | 20 µM [falling, single point] | – |
| COc1cc(/C=N/Nc2ccccn2)ccc1O | 0.355 µM [rising, partial curve, poor fit] | – |
| Cc1ccc2oc(=O)c(/C=C(\O)c3sc(C)nc3C)nc2c1 | 20.6 µM [falling, single point] | – |
| O=C(NC(Cc1c[nH]c2ccccc12)C(=O)N/N=C/c1ccc(Br)cc1)c1cccs1 (centres undefined) | 22.4 µM [falling, single point] | – |
| CCOC(=O)c1sc(NC(=O)c2c(C)nn(Cc3ccccc3)c2C)cc1C | 20.6 µM [falling, partial curve, poor fit] | – |
| O=c1[nH]c2ccccc2nc1C(F)(F)F | 22.4 µM [falling, single point] | – |
| CN1CCN(c2ccc(NC(=O)c3ccc(-c4ccc(Cl)cc4)o3)cc2)CC1 | 11.2 µM [falling, partial curve] | – |
| CC(=O)c1ccc(NC(=O)c2ccc(CSc3ccccc3)o2)cc1 | 29.1 µM [falling, single point] | – |
| CCOC(=O)C1CCN(Cc2cc(C(C)(C)C)c(O)c(C(C)(C)C)c2)CC1 | 7.08 µM [falling, full curve, poor fit] | – |
| COc1ccc(S(=O)(=O)Nc2ccc(-c3ccc4nnc(C)n4n3)cc2)c(OC)c1 | 8.2 µM [rising, partial curve, poor fit] | – |
| O=C(Nc1ccc(-c2noc(-c3cccs3)n2)cc1)c1cccnc1 | 23.1 µM [falling, single point] | – |
| COc1cc(C=C2C(=O)c3ccccc3C2=O)ccc1O | 35.5 µM [falling, single point] | – |
| COC(=O)c1ccc(C(=O)OC)c(NC2=NS(=O)(=O)c3ccccc32)c1 | 6.51 µM [rising, single point] | – |
| Cc1ccc(-c2nc3scc(CCNC(=O)c4cccc(Br)c4)n3n2)cc1 | 17.8 µM [rising, single point] | – |

Copied from the listing (four entries):

| Compound | AC50 [1] | AC50 [2] |
| --- | --- | --- |
| FC(F)(F)c1ccc(-c2csc(-c3ccno3)n2)cc1 | 17.8 µM [rising, partial curve, poor fit] | – |
| Cc1ccc(NC(=S)N2CCC(N(C)CC3CCCO3)CC2)c(C)c1 (centres undefined) | 6.51 µM [falling, single point] | – |
| COc1ccc2[nH]c(=O)c(CN(C(=O)c3cccnc3)c3ccccc3)cc2c1 | 29.1 µM [falling, single point] | – |
| COC(=O)c1nnn(CC(=O)Nc2cccc(Cl)c2C)c1C(=O)OC | 2.06 µM [falling, single point] | – |
